The record followed here is article PMC6515683.

Amino acid sequences for entries named in this document (tags omitted). A change or cut given only in a name is not applied to a line headed by its entry.
UniProt P03372: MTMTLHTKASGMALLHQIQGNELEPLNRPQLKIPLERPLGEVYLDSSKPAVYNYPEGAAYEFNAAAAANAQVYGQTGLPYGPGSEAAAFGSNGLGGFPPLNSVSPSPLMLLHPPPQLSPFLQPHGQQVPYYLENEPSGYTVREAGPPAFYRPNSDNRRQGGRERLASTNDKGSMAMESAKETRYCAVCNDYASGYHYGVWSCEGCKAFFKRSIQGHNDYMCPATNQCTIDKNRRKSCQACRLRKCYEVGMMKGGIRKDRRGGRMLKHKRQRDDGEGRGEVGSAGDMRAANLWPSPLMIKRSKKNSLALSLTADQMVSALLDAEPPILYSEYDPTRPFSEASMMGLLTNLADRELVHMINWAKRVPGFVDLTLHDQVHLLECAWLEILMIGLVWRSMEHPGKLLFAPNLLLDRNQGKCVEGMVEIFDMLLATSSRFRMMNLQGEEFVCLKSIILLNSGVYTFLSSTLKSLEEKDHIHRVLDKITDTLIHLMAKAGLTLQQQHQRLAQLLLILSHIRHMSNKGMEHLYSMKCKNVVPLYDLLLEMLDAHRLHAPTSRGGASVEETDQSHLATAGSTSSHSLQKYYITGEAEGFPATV

The target of this assay is estrogen receptor-alpha (human (endogenous in MCF7 and T47D)) (UniProt P03372). Put plainly: co-IP; ERα (F10) antibody sc-8002 on Dynabeads Protein A, incubated overnight at 4 °C with nuclear lysate of MCF7 or T47D cells in estrogenic conditions; western blot for GRHL2. On the technique in general: A western blot detects proteins with antibodies after separation by electrophoresis.

Results are given in words; binding and its absence hold for the method and conditions named. Binding seen in cells or lysates may run through a third protein. Some entries that bind do so weakly or less than the wild type.

B1: GRHL2 (protein, UniProt Q6ISB3 1-625)
chain: MSQESDNNKRLVALVPMPSDPPFNTRRAYTSEDEAWKSYLENPLTAATKAMMSINGDEDSAAALGLLYDYYKVPRDKRLLSVSKASDSQEDQEKRNCLGTSEAQSNLSGGENRVQVLKTVPVNLSLNQDHLENSKREQYSISFPESSAIIPVSGITVVKAEDFTPVFMAPPVHYPRGDGEEQRVVIFEQTQYDVPSLATHSAYLKDDQRSTPDSTYSESFKDAATEKFRSASVGAEEYMYDQTSSGTFQYTLEATKSLRQKQGEGPMTYLNKGQFYAITLSETGDNKCFRHPISKVRSVVMVVFSEDKNRDEQLKYWKYWHSRQHTAKQRVLDIADYKESFNTIGNIEEIAYNAVSFTWDVNEEAKIFITVNCLSTDFSSQKGVKGLPLMIQIDTYSYNNRSNKPIHRAYCQIKVFCDKGAERKIRDEERKQNRKKGKGQASQTQCNSSSDGKLAAIPLQKKSDITYFKTMPDLHSQPVLFIPDVHFANLQRTGQVYYNTDDEREGGSVLVKRMFRPMEEEFGPVPSKQMKEEGTKRVLLYVRKETDDVFDALMLKSPTVKGLMEAISEKYGLPVEKIAKLYKKSKKGILVNMDDNIIEHYSNEDTFILNMESMVEGFKVTLMEI
With B1, the binding entry is given as “binds”.
